Test results taken from US20230309520A1, “AGE-RELATED HEARING LOSS ANIMAL MODEL AND CONSTRUCTION METHOD THEREFOR” (UNIVERSITY INDUSTRY FOUNDATION, YONSEI UNIVERSITY WONJU …, priority 2020, published 2023).
Some of these results come from one statement about several compounds together.

Tested on: auditory hair cells
Experiment: Hair cell survival and damage by Myo7a immunostaining of cochlear slices
Format: in vivo, C57BL/6 mice
Settings: normoxia

## O=C[C@H](O)[C@@H](O)[C@@H](O)[C@H](O)CO [GI, D-galactose]
  survival rate of hair cells: ≥ 80%
